This passage reports IC50 results from paper PMC4594013 (Frontiers in Pharmacology, 2015).

Read-outs that look alike come from different tables or passages of the source.

Assay [1] concerns the target T1, OAT2-tv1 (Homo sapiens, UniProt Q9Y694).
T1 sequence (Q9Y694 1-546 isoform Q9Y694-2): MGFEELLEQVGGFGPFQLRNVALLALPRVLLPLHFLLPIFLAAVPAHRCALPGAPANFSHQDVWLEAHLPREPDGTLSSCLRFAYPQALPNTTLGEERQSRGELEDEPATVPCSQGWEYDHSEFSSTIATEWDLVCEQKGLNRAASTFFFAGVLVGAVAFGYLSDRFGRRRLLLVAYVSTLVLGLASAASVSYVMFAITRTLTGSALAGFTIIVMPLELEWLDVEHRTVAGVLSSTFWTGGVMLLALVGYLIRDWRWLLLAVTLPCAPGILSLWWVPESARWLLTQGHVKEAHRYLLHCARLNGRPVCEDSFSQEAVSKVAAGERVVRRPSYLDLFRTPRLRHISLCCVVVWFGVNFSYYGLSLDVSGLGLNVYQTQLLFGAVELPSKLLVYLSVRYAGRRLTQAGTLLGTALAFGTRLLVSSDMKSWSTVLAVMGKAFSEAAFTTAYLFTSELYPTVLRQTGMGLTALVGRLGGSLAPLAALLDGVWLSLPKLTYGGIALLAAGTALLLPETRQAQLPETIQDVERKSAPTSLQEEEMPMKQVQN
Briefly: Inhibition of [3H]penciclovir uptake into CHO-OAT2-tv1 cells. The format is cell-based. The settings on record: inhibition of [3H]penciclovir uptake by CHO-OAT2-tv1 cells; 5 min, room temperature. On the procedure:
All experiments examining cellular radiolabeled compound uptake were conducted using cells grown to confluence in 24-well flat bottom plates. The transport solution consisted of WB (room temperature) containing radiolabeled compound and the uptake period for all experiments was at an initial rate time point of 5 min. [^3H]Penciclovir served as the probe OAT2 substrate. We also examined the uptake of [^3H]para-aminohippurate, [^3H]estrone-3-sulfate, [^14C]glutarate, [^14C]succinate, [^3H]paclitaxel, and [^3H]dehydroepiandrosterone sulfate by OAT2 since published studies indicate that they are substrates of the transport protein ([Sun et al., 2001]; [Kobayashi et al., 2005a]). […] For all cellular uptake experiments, the medium was aspirated and the cells were rinsed once with WB (0.3 ml). Following the uptake period, cells were washed three times with ice-cold WB (0.5 ml each wash). After aspirating the final wash the cells were lysed in 0.5 N NaOH/1% SDS (0.4 ml) for ∼30 min on an orbital shaker. 1 N HCl (0.2 ml) was then added to neutralize the NaOH, and the cell lysates (0.5 ml) were transferred to scintillation vials containing liquid scintillation cocktail (CytoScint ES, MP Biomedicals). Cellular radioactivity content was determined with a Beckman LS6500 liquid scintillation counter. Protein content was determined using the bicinchoninic acid method. […]

Assay [2] deals with T1, OAT2-tv1. More on the design: The open reading frame of the human ortholog of OAT2 transcript variant 1 (OAT2-tv1) containing 546 amino acids was amplified from human kidney cDNA; expressed in transfected cells; host or cells: CHO Flp-In (A1); CHO, HEK and MDCK Flp-In (A2). The following applies: inhibition of OAT2-tv1; ref Babelova et al., 2015; cited from earlier work.

By IC50 is commonly meant the midpoint of a concentration-inhibition curve. As for `NS(=O)(=O)c1cc(C(=O)O)c(NCc2ccco2)cc1Cl` [Furosemide], the results for the half-maximal inhibitory concentration (IC50) against OAT2-tv1 [1] and at OAT2-tv1 [2] were 10.8 ± 1.5 µM and 10.9 µM, respectively.
